At least one compound was matched to its structure with a doubt left.
Test system: bcCML leukemic cells
Experiment: Zoledronic acid treatment of leukemic mice: disease burden, LSC frequency (flow cytometry), progression
Format: in vivo
Conditions: ZA-treated leukemic mice (data not shown)

SMILES: O=P(O)(O)C(O)(Cn1ccnc1)P(=O)(O)O [ZA, Zoledronic acid]
- progression of disease or mortality: no changes

— patent publication US20140186376A1, “Compositions and Methods for Inhibiting CCL3” (University of Rochester, priority 2012, published 2014)
